Measured values as given in patent publication US6689815B2, “Intratumoral use of dinitrochorobenzene: composition and use of injections including particular applications” (priority 2001, dated 2004).
At least one compound was matched to its structure with a doubt left.

Experiments:
[1] = tested on: metastatic scalp melanoma; assay: Superficial intratumoral injection of DNCB in patients with metastatic scalp melanoma; assay type: in vivo; details: superficial intratumoral injection of 2000 microgram of DNCB, human patients
[2] = Stability of DNCB acetone solution by ultraviolet spectrophotometric assay; assay type: physicochemical; details: after one year at 0 degrees C, absorbance at 238 millimicrons

## O=[N+]([O-])c1ccc(Cl)c([N+](=O)[O-])c1 [DNCB, 2, 4 dinitrochlorobenzene]
[1]
  treatment outcome / survival: successful results with long term survival
[2]
  potency and purity of acetone solution on storage: full potency and purity
